Measured values: PubChem BioAssay AID651660 (Broad Institute, 2012)
Where “and” joins values, the source holds several entries; their conditions need not be identical. Identical values can stand only once. The whole screen tested about 1,900 compounds, of which about 15 (0.8%) were called active.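 The calls were made as follows: active = every replicate shows at least 50% inhibition; inconclusive = mean inhibition at least 50% but some replicate below; inactive = the rest.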 Some of the results follow.

Sequences of proteins named here, by UniProt entry; tags and fusion partners are left off. A change or cut given only in a name is not applied to a line headed by its entry.
UniProt P43351: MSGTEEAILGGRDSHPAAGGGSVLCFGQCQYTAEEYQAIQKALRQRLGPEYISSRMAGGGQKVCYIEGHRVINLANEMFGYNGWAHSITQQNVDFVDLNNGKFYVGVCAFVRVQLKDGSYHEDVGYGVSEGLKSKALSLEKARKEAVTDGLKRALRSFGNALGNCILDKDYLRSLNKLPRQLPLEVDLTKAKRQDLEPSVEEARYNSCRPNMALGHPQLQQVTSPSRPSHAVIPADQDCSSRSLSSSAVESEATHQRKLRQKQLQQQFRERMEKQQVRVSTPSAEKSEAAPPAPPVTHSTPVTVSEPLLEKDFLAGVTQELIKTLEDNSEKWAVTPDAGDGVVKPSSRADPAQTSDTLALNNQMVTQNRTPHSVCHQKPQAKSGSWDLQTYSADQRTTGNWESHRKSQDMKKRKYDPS

biological target: DNA repair protein RAD52 homolog (Homo sapiens) (UniProt P43351); assay: inhibition of RAD52-mediated strand annealing – biochemical, FRET, single point, primary screen (AID 651660); settings: Recombinant RAD52 ssDNA annealing, FRET fluorescence, 30 min; at 18.7 µM; hits give high values;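 also: 0% = median of neutral control wells and 100% = median of positive control wells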

inhibition, inactive:
Cc1ccccc1-c1coc2cc(O)ccc2c1=O -13.2%, CCC1CCc2c(sc(NC(=O)c3cccnc3)c2C(N)=O)C1 (stereo unspecified) -5.46%, COc1cc(C(=O)CCN2CCC(c3ccccc3)C2)cc(OC)c1OC (stereo unspecified) 1.35%, Cn1c([N+](=O)[O-])cnc1COC(N)=O -5.31%, Fc1ccccc1CNCCC(Cc1ccccc1)c1ccc2c(c1)OCO2 (stereo unspecified) 27.4%, Cc1ccc2nc3c(cc(C(=O)NCC4CCCO4)c(=N)n3CCCOC(C)C)c(=O)n2c1 (stereo unspecified) -9.5%, Cc1coc2c1c(C)cc1oc(=O)c(Cc3ccccc3)c(C)c12 -10.3%, Cc1cc(C)c2c(CCl)cc(=O)oc2c1 3.63%, Cc1nnc(SCC(=O)N2CCCC(C(=O)c3ccc(Cl)cc3)C2)o1 (stereo unspecified) -9.38%, CNCCC(Oc1ccc(C(F)(F)F)cc1)c1ccccc1 (stereo unspecified) 18.8%, Cc1ccc(C(=O)NCCNC(=O)c2ccccc2)cc1 -3.73%, CC(=O)Nc1cc(O)cc(O)c1 -8.45%, COC(=O)c1cc(OC)c(OC)c(OC)c1[N+](=O)[O-] -11.8%, COc1ccc2nc(NC(=O)Nc3ccccc3)sc2c1 3.21%, COc1cccc2c(O)cc(=O)n(C)c12 6.83%, C[C@]12CC[C@@H]3c4cc(O)c(O)cc4CC[C@H]3[C@@H]1CC[C@@H]2O 0.968%, CCCCNC(=O)NS(=O)(=O)c1ccc(C)cc1 -12.7%, CC(=O)[C@H]1CC[C@H]2[C@@H]3C[C@H](C)C4=CC(=O)CC[C@]4(C)[C@H]3[C@@H](O)C[C@]12C 2.43%, CC(C)CC1c2[nH]c3ccccc3c2CCN1C(=O)CCC(=O)N(C)C (stereo unspecified) -3.31%, CC(=O)N1c2ccccc2C(C)=CC1(C)C -2.15%, CCOCc1cc(C)[nH]c(=O)c1C#N -3.01%, O=C1c2ccccc2C2(c3ccccc3)NCCN12 (stereo unspecified) -0.98%, O=C(CCC(=O)c1cccs1)c1cccs1 1.81%, Cc1ccc2c(c1)C(C)(C)[C@]1(C)NC(=O)CCN21 -137%, CC(=O)OC1c2c(ccc3ccc(=O)oc23)OC(C)(C)C1OC(=O)CC(C)C (stereo unspecified) 1.13%, O=C(CN1CC[n+]2c(-c3cccs3)csc21)c1ccc(Br)cc1 16.6%, CCOC(=O)c1c(C)oc2c1C(=O)c1ccccc1C2=O -2.13%, Cc1ccccc1NC(=O)C1c2ccccc2Oc2ccccc21 -5.77%, Cc1ccc(C(CC(=O)NCc2ccco2)c2ccc(OC(C)C)cc2)cc1 (stereo unspecified) -9.23%, COc1cccc(CC2CC(=O)N(c3ccc4c(C)cc(=O)oc4c3)C2=O)c1 (stereo unspecified) -4.9%, O=C1CCc2cc(OCCCCc3nnnn3C3CCCCC3)ccc2N1 9.44%, CCS(=O)(=O)CCn1c([N+](=O)[O-])cnc1C 7.76%, CCCCOc1cc(C(=O)NCCN(CC)CC)c2ccccc2n1 8.91% and -1.38%, c1cc(-c2ccncc2)ccn1 5.07%, C(=C\c1ccc2ccccc2n1)/c1ccccc1 3.46%, O=C(Oc1ccc2c3c(c(=O)oc2c1)CCCC3)c1ccco1 -7.43%, Cc1csc(CCc2nc(C)cs2)n1 4.78%, COc1ccc(-c2c(C)c3ccc(OCC(C)=O)cc3oc2=O)cc1 -13.6%, O=C(/C=C/c1ccc2c(c1)OCO2)NCc1ccc(F)cc1 -7.5%, COc1ccc(-c2cc(C(=O)N3CCOCC3)c3cc(C)ccc3n2)cc1 -12%, CN1CC2CCCC3(C1)C(=O)NC1(CCCCC1)N=C23 (stereo unspecified) -2.27%, COc1ccc(C)cc1S(=O)(=O)Nc1ccc(F)cc1 -3.15%, CC(NC(=O)c1ccc(OC2CCN(Cc3ccccn3)CC2)cc1)c1ccccc1 (stereo unspecified) -21.4%, CC(C)=CCCC(C)CN1CCC(N2CCC(C(=O)N3CCCC3)CC2)CC1 (stereo unspecified) -64.5%, COC(=O)c1ccc(NC(=O)C23CCC(C)(C(=O)O2)C3(C)C)cc1 (stereo unspecified) -12%, C[C@]12CC[C@@H]3c4ccc(O)cc4CC[C@H]3[C@@H]1CCC2=O 1.38%, O=C(OCCN1CCCC1)C1(c2ccccc2)CCCC1 -5.14%, CN=C1c2cc3cc(OC)ccc3n2CCN1C 14.8%, OC(C#CCN1CCCC1)(c1ccccc1)c1cccnc1 (stereo unspecified) -0.126%, COC1CCCCC1Nc1ccc(C)c(C)c1 (stereo unspecified) -29.2%, Cc1cccc(CN2CCN(C(c3ccccc3)c3ccc(Cl)cc3)CC2)c1 (stereo unspecified) 11.1%, CC1CNCCN1S(=O)(=O)c1cccc2cnccc12 (stereo unspecified) -2.88%, COCCn1c(/C=C/c2ccccc2)nc2ccccc21 2.84%, CCOC(=O)C1=C[C@]2(CC)CCCN3CCc4c(n1c1ccccc41)[C@@H]32 -35.6%, COc1ccccc1C(O)c1nccn1C (stereo unspecified) 0.191%, COc1ccc2c(c1)[N+](C)(C)C(C)(C)C=C2C 2.05%, C#CCN1C(=O)C(O)(c2c(C)[nH]c3ccccc23)c2ccccc21 (stereo unspecified) -11.1%, c1ccc2[nH]c(-c3cscn3)nc2c1 2.21%, CN1[C@@H](CC(=O)c2ccccc2)CCC[C@H]1C[C@H](O)c1ccccc1 -0.491%, CC1=NN(C(=O)c2ccc(Br)cc2)C(O)(c2ccccc2)C1 (stereo unspecified) 0.893%, CCC(C)NCCOCCOc1ccc(Cl)cc1Br (stereo unspecified) 9.51%, COc1cc(NC(=S)NN2CCN(C)CC2)cc(OC)c1OC -4.66%, CC12CC(c3ccccc3O1)C(C(=O)N1CCOCC1)C(=O)N2 (stereo unspecified) 2.26%, O=C(OCCNC(=O)c1ccc2ccccc2n1)c1ccc(F)cc1 3.05%, O=C(c1ccc(Cl)cc1)C1CCCN(Cc2ccc(Oc3ncccn3)cc2)C1 (stereo unspecified) 1.51%, COc1ccc(C2C3=C(CC(C)(C)CC3=O)N(C)C3=C2C(=O)CC(C)(C)C3)cc1 -13.9%, Cc1c(NC(=O)c2cccs2)cccc1[N+](=O)[O-] 0.122%, Cc1nc2cc3ccccc3cc2c(=O)[nH]1 -5.13%, COc1cccc(CN2C(=O)N(C(C)C)C(N(O)C(=O)NC(C)C)C2(C)C)c1OC (stereo unspecified) 2.14%, C#CCN(C)CCCOc1ccc(Cl)cc1Cl 7.83%, Cn1c(=O)c2c(ncn2CCO)n(C)c1=O -12.2%, COc1ccc(-n2cc(CNCc3cccnc3)c(-c3cccc(F)c3)n2)cc1 28.8%, COc1ccc2c(c1)[nH]c1c(=O)n(Cc3ccccn3)cnc12 2.57%, CC1(C)CC(=O)c2cnc(NC(=O)C3CCCC3)nc2C1 0.741%, Cn1c(=O)[nH]c(=O)c2c1nc(NCc1ccco1)n2CCCc1ccccc1 -5.64%, Cc1ccc2c(c1)C(O)(CC(=O)/C=C/C=C/c1ccccc1)C(=O)N2 (stereo unspecified) -10.7%, CCCCC/C=C\C[C@H](O)/C=C/c1cccc(C[C@H](O)CCCCO)n1 -31.2%, COc1ccccc1OCC(=O)O 5.53%, Cc1cc(=O)c2c(O)c(O)ccc2o1 -11.5%, CC1(C)S[C@@H]2[C@H](NC(=O)Cc3ccccc3)C(=O)N2[C@H]1C(=O)O 5.89%, CCCCCCCC(=O)OCC(=O)[C@@]1(O)CC[C@H]2[C@@H]3CCC4=CC(=O)CC[C@]4(C)[C@H]3[C@@H](O)C[C@@]21C -3.41%, COc1cc(OC)c(-c2nc3cnccc3n2C)cc1OC -3.52%, O=C1CC(c2ccc(F)cc2)Cc2nc(NCC3CCCO3)ncc21 (stereo unspecified) -1.18%, CNCCCN1c2ccccc2CCc2ccccc21 -18.4%, C[n+]1ccccc1/C=N/O -4.99% and -10.2%, COc1ccc(CN2CCCCC2C(=O)Nc2ccc(OC)c(OCC(C)C)c2)cc1OC (stereo unspecified) -5.32%, CCC(C)n1ncn(-c2ccc(N3CCN(c4ccc(OCC5COC(Cn6cncn6)(c6ccc(Cl)cc6Cl)O5)cc4)CC3)cc2)c1=O (stereo unspecified) -0.796%, Cc1cccc(Nc2ccccc2C(=O)O)c1C -13.3%, CCOc1ncnc2c1[nH]c1ccccc12 2.77%, CN(C)C(=O)Oc1cccc([N+](C)(C)C)c1 -2.12% and -7.4%, CN1CCC(OC(c2ccccc2)c2ccccc2)CC1 1.95%, CC12CN3CC(C)(CN(C1)C3c1ccc(Cl)cc1Cl)C2=O (stereo unspecified) -9.22%, Cc1cc(O)c(C(=O)Cc2csc(C)n2)c(O)c1 0.256%, O=c1[nH]cnc2[nH]ncc12 -2.05%, NC(CO)C(=O)NNCc1ccc(O)c(O)c1O (stereo unspecified) 20.8%, CN(C)CCCN1c2ccccc2CCc2ccccc21 -3.5%, COc1cccc(OCC(O)CO)c1 (stereo unspecified) 1.01%, CCC(=O)c1ccc(OCc2ccc(C(=O)OC)cc2)cc1 1.33%, CC(C)CN1CCN(Cc2cccn2-c2ccccn2)CC1CCO (stereo unspecified) -26.2%, CC1(C)C(C=C(Cl)Cl)C1C(=O)N1CCN(Cc2ccccc2)CC1 (stereo unspecified) -2.42%, CNC(=O)Oc1ccc2c(c1)[C@]1(C)CCN(C)[C@@H]1N2C 3.13%
